From article PMC4872223 come the findings set out here.

By UniProt entry, the sequences of proteins in these tests, tags left out.
UniProt Q8LK56: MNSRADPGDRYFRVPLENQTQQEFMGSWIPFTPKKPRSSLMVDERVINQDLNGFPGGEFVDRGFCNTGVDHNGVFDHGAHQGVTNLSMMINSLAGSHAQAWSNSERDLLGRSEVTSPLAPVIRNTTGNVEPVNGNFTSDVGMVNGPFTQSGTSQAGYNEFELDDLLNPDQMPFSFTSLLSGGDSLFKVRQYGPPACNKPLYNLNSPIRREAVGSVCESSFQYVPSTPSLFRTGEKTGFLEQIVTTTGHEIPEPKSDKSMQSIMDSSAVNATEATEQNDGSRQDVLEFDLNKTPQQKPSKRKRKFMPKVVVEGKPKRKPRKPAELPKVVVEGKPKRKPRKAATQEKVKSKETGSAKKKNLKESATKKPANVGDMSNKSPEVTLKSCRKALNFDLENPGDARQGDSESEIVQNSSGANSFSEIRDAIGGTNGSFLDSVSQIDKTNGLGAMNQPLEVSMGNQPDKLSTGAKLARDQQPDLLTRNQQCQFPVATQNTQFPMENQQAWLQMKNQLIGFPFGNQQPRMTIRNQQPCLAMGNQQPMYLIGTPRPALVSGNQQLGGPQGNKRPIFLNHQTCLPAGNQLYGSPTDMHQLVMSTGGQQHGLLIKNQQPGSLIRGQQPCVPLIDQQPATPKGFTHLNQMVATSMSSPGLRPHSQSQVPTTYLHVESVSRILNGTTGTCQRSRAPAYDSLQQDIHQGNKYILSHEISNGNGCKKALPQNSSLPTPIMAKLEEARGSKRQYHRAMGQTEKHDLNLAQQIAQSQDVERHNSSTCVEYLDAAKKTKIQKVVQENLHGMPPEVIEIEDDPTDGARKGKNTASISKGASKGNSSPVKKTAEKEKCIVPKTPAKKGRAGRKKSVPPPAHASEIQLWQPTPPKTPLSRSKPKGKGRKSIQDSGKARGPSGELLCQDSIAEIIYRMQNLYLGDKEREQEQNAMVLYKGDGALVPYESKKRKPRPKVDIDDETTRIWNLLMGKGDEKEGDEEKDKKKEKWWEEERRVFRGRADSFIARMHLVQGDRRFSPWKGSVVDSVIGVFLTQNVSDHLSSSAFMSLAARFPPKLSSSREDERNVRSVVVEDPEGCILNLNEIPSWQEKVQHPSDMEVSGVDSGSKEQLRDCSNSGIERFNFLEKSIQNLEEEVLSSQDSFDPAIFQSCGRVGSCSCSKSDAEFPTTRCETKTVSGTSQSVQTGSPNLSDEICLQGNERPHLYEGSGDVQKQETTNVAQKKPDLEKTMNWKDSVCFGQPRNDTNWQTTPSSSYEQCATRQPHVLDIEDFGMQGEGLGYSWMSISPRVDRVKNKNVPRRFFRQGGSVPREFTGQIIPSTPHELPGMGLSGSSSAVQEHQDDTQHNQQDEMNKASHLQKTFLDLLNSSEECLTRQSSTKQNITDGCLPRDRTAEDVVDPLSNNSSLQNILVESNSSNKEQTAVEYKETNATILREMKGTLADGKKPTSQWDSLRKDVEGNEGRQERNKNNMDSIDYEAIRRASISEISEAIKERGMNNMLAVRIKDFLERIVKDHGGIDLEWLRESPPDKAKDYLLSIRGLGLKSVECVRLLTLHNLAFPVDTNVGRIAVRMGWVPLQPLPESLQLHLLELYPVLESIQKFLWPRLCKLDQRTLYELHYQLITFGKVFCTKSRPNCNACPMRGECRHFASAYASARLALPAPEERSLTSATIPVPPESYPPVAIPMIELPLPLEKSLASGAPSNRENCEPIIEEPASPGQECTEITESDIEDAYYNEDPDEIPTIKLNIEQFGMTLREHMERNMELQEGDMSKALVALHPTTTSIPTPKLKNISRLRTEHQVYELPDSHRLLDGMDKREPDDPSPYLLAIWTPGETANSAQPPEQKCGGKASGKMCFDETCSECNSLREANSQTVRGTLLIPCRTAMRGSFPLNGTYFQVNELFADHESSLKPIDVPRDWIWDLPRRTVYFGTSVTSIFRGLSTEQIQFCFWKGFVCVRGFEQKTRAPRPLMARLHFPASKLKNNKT

No constants are given. Whether binding was seen depends on the method and setting. Binding seen in cells or lysates may run through a third protein. Here binding means that the protein was enriched with, or labelled near, the bait; the list need not be complete. Where a sequence is shown, tags or fusion partners need not be part of it.

To fix the notation:
T1: MET18-3Flag (Arabidopsis) (UniProt Q0WVF8)
T1 sequence: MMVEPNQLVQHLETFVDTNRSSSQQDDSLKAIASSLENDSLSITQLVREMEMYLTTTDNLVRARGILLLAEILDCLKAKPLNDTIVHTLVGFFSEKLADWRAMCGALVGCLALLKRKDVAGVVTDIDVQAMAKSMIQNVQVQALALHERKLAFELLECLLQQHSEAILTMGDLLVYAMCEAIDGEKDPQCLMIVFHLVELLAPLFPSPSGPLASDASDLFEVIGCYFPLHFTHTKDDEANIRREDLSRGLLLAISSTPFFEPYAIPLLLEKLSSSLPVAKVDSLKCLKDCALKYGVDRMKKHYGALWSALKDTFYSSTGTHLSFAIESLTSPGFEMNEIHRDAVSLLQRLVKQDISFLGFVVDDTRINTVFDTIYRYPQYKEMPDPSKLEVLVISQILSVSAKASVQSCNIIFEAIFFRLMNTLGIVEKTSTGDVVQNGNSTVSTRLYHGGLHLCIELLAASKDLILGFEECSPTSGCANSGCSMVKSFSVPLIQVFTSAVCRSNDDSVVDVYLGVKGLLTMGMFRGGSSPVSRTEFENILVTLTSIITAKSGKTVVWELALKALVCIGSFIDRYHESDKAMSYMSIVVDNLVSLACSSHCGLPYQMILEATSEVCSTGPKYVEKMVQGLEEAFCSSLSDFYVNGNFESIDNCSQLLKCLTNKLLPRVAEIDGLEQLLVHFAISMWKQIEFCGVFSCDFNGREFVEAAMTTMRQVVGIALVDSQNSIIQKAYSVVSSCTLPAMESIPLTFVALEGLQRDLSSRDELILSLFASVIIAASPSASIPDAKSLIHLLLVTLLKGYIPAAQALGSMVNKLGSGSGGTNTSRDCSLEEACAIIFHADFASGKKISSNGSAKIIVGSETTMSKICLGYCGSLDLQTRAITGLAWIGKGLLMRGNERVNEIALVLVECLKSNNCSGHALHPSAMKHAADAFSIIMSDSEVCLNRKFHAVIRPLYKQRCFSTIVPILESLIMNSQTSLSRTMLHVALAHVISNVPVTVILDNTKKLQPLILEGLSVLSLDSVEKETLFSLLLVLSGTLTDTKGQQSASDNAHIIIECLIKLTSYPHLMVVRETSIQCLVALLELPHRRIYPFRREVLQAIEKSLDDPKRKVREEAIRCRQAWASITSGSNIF

B1: CIA2/AE7 (protein, UniProt Q9C9G6 1-157)
chain: MVSGLINENPIIYPKKERRLRTDTSITDELTPEPIDQLEIFDHIRDIKDPEHPNTLEDLRVVTEDSVEVDDENSYVRVTFTPTVEHCSMATVIGLCVRVKLLRSLPSRYKIDIRVAPGSHATEDALNKQLNDKERVAAALENPNLVEMVDECLPSEE
B2: CIA1 (protein, UniProt O80990 1-352)
chain: MDLMEKNLELVEIQKLEGHTDRVWSVAWNPVSSHADGVSPILASCSGDNTVRIWEQSSLSRSWTCKTVLEETHTRTVRSCAWSPSGQLLATASFDGTTGIWKNYGSEFECISTLEGHENEVKSVSWNASGSCLATCSRDKSVWIWEVLEGNEYDCAAVLTGHTQDVKMVQWHPTMDVLFSCSYDNTIKVWWSEDDDGEYQCVQTLGESNNGHSSTVWSISFNAAGDKMVTCSDDLTLKIWGTDIAKMQSGEEYAPWIHLCTLSGYHDRTIYSAHWSRDDIIASGAGDNAIRLFVDSKHDSVDGPSYNLLLKKNKAHENDVNSVQWSPGEGNRLLASASDDGMVKIWQLATKP
B3: ACO1 (protein, UniProt Q42560 1-898)
chain: MASENPFRSILKALEKPDGGEFGNYYSLPALNDPRIDKLPYSIRILLESAIRNCDEFQVKSKDVEKILDWENTSPKQVEIPFKPARVLLQDFTGVPAVVDLACMRDAMNNLGGDSNKINPLVPVDLVIDHSVQVDVARSENAVQANMELEFQRNKERFAFLKWGSNAFHNMLVVPPGSGIVHQVNLEYLARVVFNTNGLLYPDSVVGTDSHTTMIDGLGVAGWGVGGIEAEATMLGQPMSMVLPGVVGFKLTGKLRDGMTATDLVLTVTQMLRKHGVVGKFVEFHGEGMRELSLADRATIANMSPEYGATMGFFPVDHVTLQYLRLTGRSDDTVSMIEAYLRANKMFVDYSEPESKTVYSSCLELNLEDVEPCVSGPKRPHDRVPLKEMKADWHSCLDNRVGFKGFAVPKEAQSKAVEFNFNGTTAQLRHGDVVIAAITSCTNTSNPSVMLGAALVAKKACDLGLEVKPWIKTSLAPGSGVVTKYLAKSGLQKYLNQLGFSIVGYGCTTCIGNSGDIHEAVASAIVDNDLVASAVLSGNRNFEGRVHPLTRANYLASPPLVVAYALAGTVDIDFETQPIGTGKDGKQIFFRDIWPSNKEVAEVVQSSVLPDMFKATYEAITKGNSMWNQLSVASGTLYEWDPKSTYIHEPPYFKGMTMSPPGPHGVKDAYCLLNFGDSITTDHISPAGSIHKDSPAAKYLMERGVDRRDFNSYGSRRGNDEIMARGTFANIRIVNKHLKGEVGPKTVHIPTGEKLSVFDAAMKYRNEGRDTIILAGAEYGSGSSRDWAAKGPMLLGVKAVISKSFERIHRSNLVGMGIIPLCFKAGEDAETLGLTGQELYTIELPNNVSEIKPGQDVTVVTNNGKSFTCTLRFDTEVELAYFDHGGILQYVIRNLIKQ
B4: DNA polymerase subunit AT5G63960 (protein, UniProt Q9LVN7 1-1095)
chain: MNRSGISKKRPPPSNTPPPAGKHRATGDSTPSPAIGTLDDEFMMEEDVFLDETLLYGDEDEESLILRDIEERESRSSAWARPPLSPAYLSNSQSIIFQQLEIDSIIAESHKELLPGSSGQAPIIRMFGVTREGNSVCCFVHGFEPYFYIACPPGMGPDDISNFHQSLEGRMRESNKNAKVPKFVKRIEMVQKRSIMYYQQQKSQTFLKITVALPTMVASCRGILDRGLQIDGLGMKSFQTYESNILFVLRFMVDCDIVGGNWIEVPTGKYKKNARTLSYCQLEFHCLYSDLISHAAEGEYSKMAPFRVLSFDIECAGRKGHFPEAKHDPVIQIANLVTLQGEDHPFVRNVMTLKSCAPIVGVDVMSFETEREVLLAWRDLIRDVDPDIIIGYNICKFDLPYLIERAATLGIEEFPLLGRVKNSRVRVRDSTFSSRQQGIRESKETTIEGRFQFDLIQAIHRDHKLSSYSLNSVSAHFLSEQKEDVHHSIITDLQNGNAETRRRLAVYCLKDAYLPQRLLDKLMFIYNYVEMARVTGVPISFLLARGQSIKVLSQLLRKGKQKNLVLPNAKQSGSEQGTYEGATVLEARTGFYEKPIATLDFASLYPSIMMAYNLCYCTLVTPEDVRKLNLPPEHVTKTPSGETFVKQTLQKGILPEILEELLTARKRAKADLKEAKDPLEKAVLDGRQLALKISANSVYGFTGATVGQLPCLEISSSVTSYGRQMIEQTKKLVEDKFTTLGGYQYNAEVIYGDTDSVMVQFGVSDVEAAMTLGREAAEHISGTFIKPIKLEFEKVYFPYLLINKKRYAGLLWTNPQQFDKMDTKGIETVRRDNCLLVKNLVTESLNKILIDRDVPGAAENVKKTISDLLMNRIDLSLLVITKGLTKTGDDYEVKSAHGELAERMRKRDAATAPNVGDRVPYVIIKAAKGAKAYERSEDPIYVLQNNIPIDPNYYLENQISKPLLRIFEPVLKNASKELLHGSHTRSISITTPSNSGIMKFAKKQLSCVGCKVPISNGTLCASCKGREAELYCKNVSQVAELEEVFGRLWTQCQECQGSLHQDVLCTSRDCPIFYRRMKAQKDMAVARQQLDRWSF
B5: NAR1 (protein, UniProt Q94CL6 1-474)
chain: MSEKFSPTLRLGDLNDFIAPSQACVISLKDSKPIVKKSDRPQVVIAPKQQLEPVKISLKDCLACSGCITSAETVMLEKQSLDEFLSALSKGKDVVVSVSPQSRASLAVHYDISPLQVFKKLTTFLKSLGVKAVFDTSCSRDLVLIESCNEFVSRYKQANSDDGENSQSPLPVLSSACPGWICYAEKQLGSYVLPYVSSVKSPQQAIGAAIKHHLCQALGLRLHEVYHVTVMPCYDKKLEAARDDFVFDDGTQDNGDLKLTEVDSVLTTGEIMDLIKLKGVDFKDLEESPLDRVLTNVTEEGDLYGVAGSSGGYAETIFRHAAKALFGQTIEGPLEFKTLRNSDFREVTLQLEGKTVLKFALCYGFQNLQNIVRRVKTRKCDYQYVEIMACPAGCLNGGGQIKPKTGQSQKELIHSLEATYMNDTTLNTDPYQNPTAKRLFEEWLKEPGSNEAKKYLHTQYHPVVKSVTSQLNNW
B6: REPRESSOR OF …1 (ROS1), endogenous (protein, UniProt Q9SJQ6 1-1393)
chain: MEKQRREESSFQQPPWIPQTPMKPFSPICPYTVEDQYHSSQLEERRFVGNKDMSGLDHLSFGDLLALANTASLIFSGQTPIPTRNTEVMQKGTEEVESLSSVSNNVAEQILKTPEKPKRKKHRPKVRREAKPKREPKPRAPRKSVVTDGQESKTPKRKYVRKKVEVSKDQDATPVESSAAVETSTRPKRLCRRVLDFEAENGENQTNGDIREAGEMESALQEKQLDSGNQELKDCLLSAPSTPKRKRSQGKRKGVQPKKNGSNLEEVDISMAQAAKRRQGPTCCDMNLSGIQYDEQCDYQKMHWLYSPNLQQGGMRYDAICSKVFSGQQHNYVSAFHATCYSSTSQLSANRVLTVEERREGIFQGRQESELNVLSDKIDTPIKKKTTGHARFRNLSSMNKLVEVPEHLTSGYCSKPQQNNKILVDTRVTVSKKKPTKSEKSQTKQKNLLPNLCRFPPSFTGLSPDELWKRRNSIETISELLRLLDINREHSETALVPYTMNSQIVLFGGGAGAIVPVTPVKKPRPRPKVDLDDETDRVWKLLLENINSEGVDGSDEQKAKWWEEERNVFRGRADSFIARMHLVQGDRRFTPWKGSVVDSVVGVFLTQNVSDHLSSSAFMSLASQFPVPFVPSSNFDAGTSSMPSIQITYLDSEETMSSPPDHNHSSVTLKNTQPDEEKDYVPSNETSRSSSEIAISAHESVDKTTDSKEYVDSDRKGSSVEVDKTDEKCRVLNLFPSEDSALTCQHSMVSDAPQNTERAGSSSEIDLEGEYRTSFMKLLQGVQVSLEDSNQVSPNMSPGDCSSEIKGFQSMKEPTKSSVDSSEPGCCSQQDGDVLSCQKPTLKEKGKKVLKEEKKAFDWDCLRREAQARAGIREKTRSTMDTVDWKAIRAADVKEVAETIKSRGMNHKLAERIQGFLDRLVNDHGSIDLEWLRDVPPDKAKEYLLSFNGLGLKSVECVRLLTLHHLAFPVDTNVGRIAVRLGWVPLQPLPESLQLHLLEMYPMLESIQKYLWPRLCKLDQKTLYELHYQMITFGKVFCTKSKPNCNACPMKGECRHFASAFASARLALPSTEKGMGTPDKNPLPLHLPEPFQREQGSEVVQHSEPAKKVTCCEPIIEEPASPEPETAEVSIADIEEAFFEDPEEIPTIRLNMDAFTSNLKKIMEHNKELQDGNMSSALVALTAETASLPMPKLKNISQLRTEHRVYELPDEHPLLAQLEKREPDDPCSYLLAIWTPGETADSIQPSVSTCIFQANGMLCDEETCFSCNSIKETRSQIVRGTILIPCRTAMRGSFPLNGTYFQVNEVFADHASSLNPINVPRELIWELPRRTVYFGTSVPTIFKGLSTEKIQACFWKGYVCVRGFDRKTRGPKPLIARLHFPASKLKGQQANLA

The assay concerns the target T1, MET18-3Flag (Arabidopsis). The experiment in a line: affinity purification with mass spectrometry; MET18-3Flag from flower tissue lysate of transgenic plants held on anti-Flag M2 magnetic beads, 3 h at 4 °C; lysis buffer 50 mM Tris pH 8.0, 230 mM NaCl, 5 mM MgCl2, 10% glycerol, 0.2% NP-40; eluted with Flag peptides; SDS-PAGE, in-gel trypsin digestion.
Regarding AtDRE2, the binding entry was “binds”.
To “DEMETER (DME) (from UniProt Q8LK56 1-1987)” belongs “binds”.
To ICU2 belongs “binds”.
As for B1, the entry is “binds”; as for B2, “binds”.
Turning to B3, the binding entry is “binds”.
To B4 belongs “binds”; to B5, “binds”; to B6, “binds”.
